{"source": "PubChem BioAssay AID1159578 (Peter MacCallum Cancer Centre, 2015)", "purpose": "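Knock-downs that alter how fast lymphatic endothelial cells migrate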 (primary screen)", "system": "human lymphatic endothelial cells", "knock-down reagent": "siRNA pool against human genes, 40 nM", "duration": "48 h after transfection", "detection": "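Cells stained with dye and imaged after a scratch; covered wound area and nuclei counted, duplicates averaged, migration set against mock wells and turned into a robust z-score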", "direction": "migration robust z-score: higher = faster migration into the scratch; nuclei per well: higher = more cells in the well", "call rule": "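Pools averaging fewer than 3300 nuclei are never called; remaining pools count as changed when migration robust z lies outside -2 to 2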", "calls": "active = migration changed; inactive = no migration change, or too few cells", "note": "The whole screen tested about 18,000 reagents; shown is an unselected part. About 1,030 of them (5.7%) were called active. 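Inactive calls also include pools with fewer than 3300 nuclei, whose migration was not assessed.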 The raw values are shown without normalisation. A number with no mark means an inactive call. Not all columns of the deposit are shown."}
{"gene": "LRRC46 (GeneID 90506)", "PubChem SID": "SID255361833", "migration robust z-score": -0.01, "migration class with cell-count check": "migration z between -2 and 2; enough cells", "nuclei per well, duplicate mean": 6287}
{"gene": "ACOT12 (GeneID 134526)", "PubChem SID": "SID255362975", "migration robust z-score": -0.08, "migration class with cell-count check": "migration z between -2 and 2; enough cells", "nuclei per well, duplicate mean": 5600}
{"gene": "AFG2B (GeneID 79029)", "PubChem SID": "SID255360172", "migration robust z-score": 0.68, "migration class with cell-count check": "migration z between -2 and 2; enough cells", "nuclei per well, duplicate mean": 6936}
{"gene": "TEX44 (GeneID 165100)", "PubChem SID": "SID255363822", "migration robust z-score": 0.38, "migration class with cell-count check": "migration z between -2 and 2; enough cells", "nuclei per well, duplicate mean": 5351}
{"gene": "TAF5 (GeneID 6877)", "PubChem SID": "SID255352734", "migration robust z-score": 1.09, "migration class with cell-count check": "migration z between -2 and 2; enough cells", "nuclei per well, duplicate mean": 6934}
{"gene": "PHF20L1 (GeneID 51105)", "PubChem SID": "SID255357480", "migration robust z-score": 0.7, "migration class with cell-count check": "migration z between -2 and 2; enough cells", "nuclei per well, duplicate mean": 6467}
{"gene": "HLA-B (GeneID 3106)", "PubChem SID": "SID255350194", "migration robust z-score": -0.47, "migration class with cell-count check": "migration z between -2 and 2; enough cells", "nuclei per well, duplicate mean": 3976}
{"gene": "CCDC127 (GeneID 133957)", "PubChem SID": "SID255362957", "migration robust z-score": 0.6, "migration class with cell-count check": "migration z between -2 and 2; enough cells", "nuclei per well, duplicate mean": 6455}
{"gene": "BSPRY (GeneID 54836)", "PubChem SID": "SID255358200", "migration robust z-score": 0.12, "migration class with cell-count check": "migration z between -2 and 2; enough cells", "nuclei per well, duplicate mean": 5131}
{"gene": "NEUROG3 (GeneID 50674)", "PubChem SID": "SID255357354", "migration robust z-score": 0.82, "migration class with cell-count check": "migration z between -2 and 2; enough cells", "nuclei per well, duplicate mean": 5656}
{"gene": "ALDH8A1 (GeneID 64577)", "PubChem SID": "SID255359943", "migration robust z-score": 0.5, "migration class with cell-count check": "migration z between -2 and 2; enough cells", "nuclei per well, duplicate mean": 6170}
{"gene": "PDE1A (GeneID 5136)", "PubChem SID": "SID255351462", "migration robust z-score": -0.36, "migration class with cell-count check": "migration z between -2 and 2; enough cells", "nuclei per well, duplicate mean": 4798}
{"gene": "ZFAT (GeneID 57623)", "PubChem SID": "SID255359513", "migration robust z-score": 0.77, "migration class with cell-count check": "migration z between -2 and 2; enough cells", "nuclei per well, duplicate mean": 5639}
{"gene": "SLC39A10 (GeneID 57181)", "PubChem SID": "SID255359324", "migration robust z-score": -1.96, "migration class with cell-count check": "migration z between -2 and 2; enough cells", "nuclei per well, duplicate mean": 4490}
{"gene": "WHAMM (GeneID 123720)", "PubChem SID": "SID255362586", "migration robust z-score": "-2.25 (active)", "migration class with cell-count check": "migration z below -2; enough cells", "nuclei per well, duplicate mean": 5510}
{"gene": "DROSHA (GeneID 29102)", "PubChem SID": "SID255357141", "migration robust z-score": -0.31, "migration class with cell-count check": "migration z between -2 and 2; enough cells", "nuclei per well, duplicate mean": 5679}
{"gene": "ACTR3 (GeneID 10096)", "PubChem SID": "SID255354804", "migration robust z-score": -1.69, "migration class with cell-count check": "migration z between -2 and 2; enough cells", "nuclei per well, duplicate mean": 5748}
{"gene": "SAP30BP (GeneID 29115)", "PubChem SID": "SID255357151", "migration robust z-score": 0.5, "migration class with cell-count check": "migration z between -2 and 2; enough cells", "nuclei per well, duplicate mean": 6742}
{"gene": "LOC100288884 (GeneID 100288884)", "PubChem SID": "SID255365584", "migration robust z-score": -0.09, "migration class with cell-count check": "migration z between -2 and 2; enough cells", "nuclei per well, duplicate mean": 4864}
{"gene": "CHD5 (GeneID 26038)", "PubChem SID": "SID255356631", "migration robust z-score": 0.54, "migration class with cell-count check": "migration z between -2 and 2; enough cells", "nuclei per well, duplicate mean": 5164}
{"gene": "CAMKV (GeneID 79012)", "PubChem SID": "SID255360161", "migration robust z-score": -1.17, "migration class with cell-count check": "migration z between -2 and 2; enough cells", "nuclei per well, duplicate mean": 3388}

Entries listed so far marked active:
{"gene": "WHAMM (GeneID 123720)", "PubChem SID": "SID255362586", "migration robust z-score": "-2.25 (active)", "migration class with cell-count check": "migration z below -2; enough cells", "nuclei per well, duplicate mean": 5510}
